PubChem BioAssay AID2685 (National Center for Advancing Translational Sciences (NCATS), 2010)
This is one part of the list. Shown are side measurements of this screen, not its main read-out; they come without a call. Compounds called inactive in the main read-out are mostly missing here. Potencies come from curve fits of mixed quality, noted in brackets.

Assay: qHTS Assay for Lipid Storage Modulators in Drosophila S3 Cells;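 on cell number change: cells counted by Cell Tracker Red CMTPX staining in the red channel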
Settings: BODIPY lipid droplet fluorescence, 18-24 h; for cell number change: measured here: cell count max response, cells fed with added oleic acid
In short: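 Drosophila S3 cells loaded with oleic acid (400 uM, as added) and compounds at several concentrations; lipid droplets imaged by 488-nm laser-scanning cytometry, 500–530 nm intensity and object ratio to cell channel. Percent activity normalized to 20 uM Triacsin C.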

[1] = measured here: cell number channel AC50, cells fed with added oleic acid
[2] = measured here: lipid fluorescence (Fed channel) AC50, cells fed with added oleic acid

Compound	cell number change	AC50 [1]	AC50 [2]
Cc1ccn2cc(-c3cccc(S(=O)(=O)N4CCCC4)c3)nc2c1	19.9%	4.61 nM [rising, full curve, poor fit]	6510 nM [rising, single point]
O=C(CCc1ccccc1)Nc1nc2n(n1)C(c1ccc(Cl)cc1)CC(=O)N2 (stereo not drawn)	-3.79%		2910 nM [rising, partial curve]
Cc1nc(SCC(=O)Nc2ccc3c(c2)OCCO3)nc(C)c1C	-1.35%	3660 nM [rising, single point]	
COC(=O)c1ccc(Oc2nc(NC(C)C)nc(N(C)C)n2)cc1			231 nM [rising, full curve, poor fit]
NC(=O)c1c(NC(=O)Cc2ccccc2)sc2c1CCN(Cc1ccccc1)C2	-7.49%		29100 nM [falling, single point]
O=C1NC2(CCCCCC2)Cc2ccccc21	8.91%		366 nM [falling, full curve]
COc1ccc(-c2ncccc2O)cc1	-66.9%	29100 nM [falling, single point]	3260 nM [falling, single point]
CCc1cc2c(=O)c(Oc3ccccc3F)c(C)oc2c(CN(C)C)c1O	14%	3.66 nM [rising, full curve, poor fit]	
COc1ccc(Br)c(/C=N/NC(=O)COc2ccc(-c3ccccc3)cc2)c1	25.3%	2310 nM [rising, full curve, poor fit]	6510 nM [rising, single point]
CCC(C(=O)NC1CCCCC1)n1c(SCc2ccccc2F)nc2ccncc21 (stereo not drawn)	4.78%		411 nM [rising, full curve, poor fit]
COCCNC(=O)CN1C(=O)COc2ccc(S(=O)(=O)N3CCCCCC3)cc21		206 nM [rising, full curve, poor fit]	29100 nM [rising, single point]
O=C1c2ccccc2CN1CCSC(=S)N1CCOCC1	6.82%	146 nM [falling, partial curve, poor fit]	
CCCCC1=NN(C(=O)c2ccco2)C(O)(C(F)(F)F)C1 (stereo not drawn)	-17.3%		651 nM [falling, full curve, poor fit]
COc1ccc(C2CC(c3ccc(F)cc3)=NN2c2ccccc2)cc1OC (stereo not drawn)	15.5%		20600 nM [falling, single point]
CCN1CCN(C(=O)/C=C\C(=O)O)CC1	9.01%		
CCOc1cc(/C=N/NC(=O)c2cccc([N+](=O)[O-])c2)ccc1OS(=O)(=O)c1ccccc1	-12.2%		10300 nM [falling, single point]

Two compounds picked at random from those above:
Compound	cell number change	AC50 [1]	AC50 [2]
COc1ccc(-c2ncccc2O)cc1	-66.9%	29100 nM [falling, single point]	3260 nM [falling, single point]
O=C1NC2(CCCCCC2)Cc2ccccc21	8.91%		366 nM [falling, full curve]
